From article PMC11649824

Chains of the proteins cited; added tags and fusions are not shown. Lines headed by an entry give the natural chain unless they say otherwise; changes in a name come on top.
UniProt Q9LP53: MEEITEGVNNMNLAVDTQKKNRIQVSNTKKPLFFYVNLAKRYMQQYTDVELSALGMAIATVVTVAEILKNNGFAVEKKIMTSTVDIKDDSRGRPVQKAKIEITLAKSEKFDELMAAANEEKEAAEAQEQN

Key:
Assay in all cases: co-IP; mCherry immunoprecipitation from 9- or 10-day-old seedlings expressing ECT2-mCherry variants (three independent lines pooled), immunoblot with mCherry- and ALBA1-specific antibodies
[1] = biological target: T1, ECT2^WT-mCherry (Arabidopsis thaliana) (UniProt Q9LJE5)
T1 sequence: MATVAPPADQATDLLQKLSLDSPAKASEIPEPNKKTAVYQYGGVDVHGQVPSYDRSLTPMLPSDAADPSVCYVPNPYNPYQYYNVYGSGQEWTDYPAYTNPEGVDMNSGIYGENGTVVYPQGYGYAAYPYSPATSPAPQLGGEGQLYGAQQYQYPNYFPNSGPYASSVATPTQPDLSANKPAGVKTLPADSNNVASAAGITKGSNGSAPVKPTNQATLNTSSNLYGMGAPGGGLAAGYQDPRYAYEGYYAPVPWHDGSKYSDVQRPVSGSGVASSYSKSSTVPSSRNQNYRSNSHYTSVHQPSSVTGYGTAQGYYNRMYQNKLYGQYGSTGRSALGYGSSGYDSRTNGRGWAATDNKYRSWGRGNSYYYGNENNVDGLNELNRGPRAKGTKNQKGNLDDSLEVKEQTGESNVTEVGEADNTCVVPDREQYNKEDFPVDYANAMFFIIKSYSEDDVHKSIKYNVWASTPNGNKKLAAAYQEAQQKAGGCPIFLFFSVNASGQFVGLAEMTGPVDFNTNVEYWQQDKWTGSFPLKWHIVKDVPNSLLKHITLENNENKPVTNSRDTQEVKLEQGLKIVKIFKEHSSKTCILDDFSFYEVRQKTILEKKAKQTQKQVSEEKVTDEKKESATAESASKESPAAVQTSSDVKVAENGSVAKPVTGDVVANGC

[2] = biological target: ECT2^ΔN8-mCherry (Arabidopsis thaliana) (UniProt Q9LJE5)
[3] = biological target: ECT2^ΔN.2-mCherry (Arabidopsis thaliana) (UniProt Q9LJE5)

With ALBA1 (from UniProt Q9LP53) the binding [1] was “binds”, the binding [2] was “binds” and the binding [3] was “no binding”.

Results are given in words; binding and its absence hold for the method and conditions named. In cells and extracts the contact can be indirect. For part of these data: A result given as binding can be weak or reduced; the word gives no strength.
